PubChem BioAssay AID686938 – Drosophila RNAi Screening Center, 2013

Assay: 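Fly genes required for calcium entry once internal stores are emptied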 (primary screen)
Cell system: Drosophila S2R+ cells
Knock-down reagent: long dsRNA against Drosophila genes, about 0.25 µg dsRNA per well, roughly 10,000 cells
Duration: 5 days of knock-down before the calcium assay
Challenge: thapsigargin (SERCA pump blocker) to empty calcium stores; entry signal taken 4 min after adding it
Detection: 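Per-well fluo-4 fluorescence in two replicates, unnormalised, measured in resting cells and 4 min after store depletion by the SERCA blocker thapsigargin; ratio of the two present in few wells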
Reading the numbers: calcium entry signal: higher = stronger calcium signal after store depletion; entry to resting ratio: higher = more calcium entry relative to resting level; resting calcium signal: higher = higher resting calcium signal
Rule for the call: 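Called when the plate z-score of the entry-to-rest ratio, mean of duplicates, falls below −3; wells with low overall dye signal (Fmax z below −2) or more than five off-targets excluded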
Meaning of the calls: active = strongly reduced calcium entry; inactive = no strong reduction
The screen tested about 23,000 reagents; shown is an unselected part of those with a known target gene and a result. Over the whole deposit, 75 (0.33%) got an active call. 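Raw plate signals without normalisation; calls rest on plate z-scores that were not deposited; ratio present for only 364 wells.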 The numbers tell different reagents against one gene apart. Names joined by + are all predicted targets of the reagent. The record does not give: the dose of the treatment.

calcium entry signal, replicate 1 (fluorescence units) | calcium entry signal, replicate 2 (fluorescence units) | entry to resting ratio | resting calcium signal, replicate 1 (fluorescence units) | resting calcium signal, replicate 2 (fluorescence units) | outcome | predicted target | reagent
5.46e7 | 4.14e7 | – | 2.30e7 | 1.67e7 | inactive | bcd + CR14578 | 1
5.46e7 | 5.17e7 | 2.1 | 2.65e7 | 2.15e7 | inactive | ng2 (new glue 2) | 1
5.39e7 | 4.51e7 | – | 2.65e7 | 1.85e7 | inactive | CG14190 | 1
6.01e7 | 5.22e7 | 2.1 | 2.89e7 | 2.32e7 | inactive | CG3699 | 1
3.02e7 | 3.66e7 | 2.1 | 1.44e7 | 1.43e7 | inactive | CG3699 | 2
2.91e7 | 3.82e7 | – | 1.39e7 | 1.90e7 | inactive | l(3)mbn (lethal (3) malignant blood neoplasm) | 1
2.94e7 | 6.25e7 | – | 1.43e7 | 3.38e7 | inactive | OtopLa (Otopetrin-like a) | 1
3.30e7 | 4.27e7 | – | 1.62e7 | 1.96e7 | inactive | OtopLa (Otopetrin-like a) | 2
3.76e7 | 3.78e7 | – | 1.81e7 | 1.82e7 | inactive | OtopLa (Otopetrin-like a) | 3
2.98e7 | 4.32e7 | – | 1.55e7 | 1.93e7 | inactive | DIP-delta (Dpr-interacting protein delta) | 1
2.79e7 | 4.80e7 | – | 1.34e7 | 2.11e7 | inactive | DIP-delta (Dpr-interacting protein delta) | 2
2.81e7 | 3.70e7 | – | 1.58e7 | 1.63e7 | inactive | Mst27D (Male specific transcript 27D) | 1
3.01e7 | 4.21e7 | – | 1.42e7 | 1.85e7 | inactive | CG14740 | 1
4.82e7 | 6.62e7 | – | 2.11e7 | 3.16e7 | inactive | CG8303 | 1
3.69e7 | 4.09e7 | – | 1.89e7 | 2.05e7 | inactive | CG11699 | 1
2.85e7 | 4.39e7 | – | 1.48e7 | 1.92e7 | inactive | CG17637 | 1
3.14e7 | 3.02e7 | – | 1.62e7 | 1.45e7 | inactive | mip120 (Myb-interacting protein 120) | 1
3.43e7 | 4.85e7 | – | 1.69e7 | 1.89e7 | inactive | Zasp67 (Z band alternatively spliced PDZ-motif protein 67) | 1
2.84e7 | 4.90e7 | – | 1.45e7 | 2.19e7 | inactive | Dh31-R (Diuretic hormone 31 Receptor) | 1
2.84e7 | 4.30e7 | – | 1.37e7 | 1.75e7 | inactive | Dh31-R (Diuretic hormone 31 Receptor) | 2
4.02e7 | 3.48e7 | – | 2.05e7 | 1.74e7 | inactive | Rap1 (Rap1 GTPase) | 1
3.35e7 | 3.93e7 | – | 1.60e7 | 1.83e7 | inactive | opm (opossum) | 1
1.56e7 | 3.00e7 | – | 9.80e6 | 1.67e7 | inactive | opm (opossum) | 2
2.85e7 | 4.38e7 | – | 1.48e7 | 2.11e7 | inactive | t (tan) | 1

Quoted from the entries so far for reference:
calcium entry signal, replicate 1 (fluorescence units) | calcium entry signal, replicate 2 (fluorescence units) | entry to resting ratio | resting calcium signal, replicate 1 (fluorescence units) | resting calcium signal, replicate 2 (fluorescence units) | outcome | predicted target | reagent
2.85e7 | 4.39e7 | – | 1.48e7 | 1.92e7 | inactive | CG17637 | 1
3.14e7 | 3.02e7 | – | 1.62e7 | 1.45e7 | inactive | mip120 (Myb-interacting protein 120) | 1
3.43e7 | 4.85e7 | – | 1.69e7 | 1.89e7 | inactive | Zasp67 (Z band alternatively spliced PDZ-motif protein 67) | 1
2.84e7 | 4.90e7 | – | 1.45e7 | 2.19e7 | inactive | Dh31-R (Diuretic hormone 31 Receptor) | 1
